Source: the supplement of paper PMC6078165
The reference is the same well before dosing, and untreated signal decays as well.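 Labels refer to human fibroblasts, largely primary: uterine (C12385, HUF), lung (H6013), bone (Hs27A), adrenal (HADF), skin (WS1), plus mammary HMF and breast cancer-associated Hs343T. Cancer lines are basal-like or mesenchymal-like triple-negative breast cancer. The paper counts as hits responses shifting over 3x the replicate standard deviation. The tissue of the other fibroblasts is not given here.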

Test system: MDAMB231
Assay: relative JC-1 red fluorescence (viability) vs pre-drug, coculture with fibroblast (fraction); higher = more viable cancer cells
Method: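 JC-1 labelled TNBC cells cocultured 1:1 (1,500 cells each) with CellTrace Violet stained primary or stromal fibroblasts in 384-well plates in FluoroBrite medium, treated with one of 42 anticancer drugs at 0.1, 1, 10 or 100 uM. JC-1 red fluorescence (mitochondrial integrity in cancer cells only) was read by plate reader every 8 h for 72 h. Values are normalised to each well's pre-drug value. The stock of one drug was tenfold lower, so its dose labels may be too high.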

C[C@]12CC[C@@H]3c4ccc(O)cc4C[C@@H](CCCCCCCCC[S+]([O-])CCCC(F)(F)C(F)(F)F)[C@H]3[C@@H]1CC[C@@H]2O (stereo partly specified) [Fulvestrant]
relative JC-1 red fluorescence
Conditions	8 h	16 h	24 h	32 h	40 h	48 h	56 h	64 h	72 h
0.1 µM, coculture fibroblast: C12385	0.7771	0.7461	0.665	0.651	0.5969	0.5669	0.5231	0.5148	0.488
0.1 µM, coculture fibroblast: H6013	0.897	0.83	0.77	0.729	0.674	0.6374	0.6201	0.5943	0.5688
0.1 µM, coculture fibroblast: H6019	0.75	0.67	0.5974	0.576	0.51987	0.495	0.442	0.411	0.374
0.1 µM, coculture fibroblast: H6076	0.9017	0.811	0.752	0.744	0.713	0.686	0.66	0.647	0.637
0.1 µM, coculture fibroblast: H6231	0.9005	0.7992	0.734	0.683	0.625	0.591	0.542	0.523	0.493
0.1 µM, coculture fibroblast: HADF	0.8823	0.835	0.781	0.749	0.718	0.676	0.655	0.64	0.592
0.1 µM, coculture fibroblast: HCFa	0.895	0.85	0.811	0.781	0.724	0.68	0.636	0.6	0.552
0.1 µM, coculture fibroblast: HCPF	0.881	0.7998	0.721	0.703	0.643	0.601	0.553	0.524	0.5
0.1 µM, coculture fibroblast: HHSteC	0.927	0.866	0.816	0.775	0.736	0.703	0.664	0.64	0.607
0.1 µM, coculture fibroblast: HMF	0.875	0.796	0.732	0.7	0.651	0.62	0.574	0.552	0.536
0.1 µM, coculture fibroblast: HPFa	0.958	0.934	0.87	0.817	0.777	0.729	0.672	0.619	0.541
0.1 µM, coculture fibroblast: HUF	0.869	0.782	0.773	0.65	0.58	0.559	0.507	0.499	0.469
0.1 µM, coculture fibroblast: Hs5	0.8849	0.806	0.757	0.724	0.679	0.63	0.594	0.564	0.531
0.1 µM, coculture fibroblast: Hs27A	0.8885	0.8272	0.7901	0.7708	0.723	0.6546	0.66095	0.638	0.588
0.1 µM, coculture fibroblast: Hs343T	0.878	0.789	0.717	0.688	0.633	0.594	0.547	0.523	0.496
0.1 µM, coculture fibroblast: WS1	0.7625	0.7249	0.633	0.603	0.553	0.538	0.494	0.484	0.467
1 µM, coculture fibroblast: C12385	0.765	0.758	0.699	0.713	0.661	0.642	0.61	0.601	0.581
1 µM, coculture fibroblast: H6013	0.908	0.862	0.8351	0.826	0.7959	0.776	0.779	0.774	0.73183
1 µM, coculture fibroblast: H6019	0.776	0.749	0.709	0.683	0.648	0.632	0.578	0.55	0.508
1 µM, coculture fibroblast: H6076	0.865	0.829	0.83	0.819	0.805	0.777	0.768	0.747	0.736
1 µM, coculture fibroblast: H6231	0.8966	0.8313	0.7978	0.7675	0.7258	0.7052	0.669	0.65	0.618
1 µM, coculture fibroblast: HADF	0.894	0.865	0.854	0.839	0.832	0.79	0.799	0.79	0.746
1 µM, coculture fibroblast: HCFa	0.889	0.843	0.794	0.744	0.691	0.65	0.631	0.609	0.565
1 µM, coculture fibroblast: HCPF	0.911	0.841	0.807	0.794	0.752	0.719	0.698	0.675	0.649
1 µM, coculture fibroblast: HHSteC	0.898	0.90133	0.8643	0.837	0.812	0.7833	0.7556	0.729	0.69
1 µM, coculture fibroblast: HMF	0.8979	0.835	0.796	0.774	0.732	0.697	0.671	0.658	0.636
1 µM, coculture fibroblast: HPFa	0.927	0.894	0.852	0.818	0.804	0.772	0.723	0.696	0.644
1 µM, coculture fibroblast: HUF	0.845	0.753	0.779	0.693	0.651	0.649	0.604	0.598	0.575
1 µM, coculture fibroblast: Hs5	0.881	0.835	0.816	0.787	0.745	0.702	0.682	0.65	0.628
1 µM, coculture fibroblast: Hs27A	0.8737	0.8325	0.8006	0.787	0.745	0.6771	0.687	0.672	0.612
1 µM, coculture fibroblast: Hs343T	0.864	0.7822	0.759	0.736	0.702	0.667	0.638	0.623	0.602
1 µM, coculture fibroblast: WS1	0.7141	0.701	0.648	0.619	0.599	0.572	0.531	0.513	0.49
10 µM, coculture fibroblast: C12385	0.818	0.8423	0.699	0.7984	0.7666	0.75	0.726	0.725	0.711
10 µM, coculture fibroblast: H6013	0.931	0.91	0.89	0.888	0.8445	0.801	0.826	0.824	0.816
10 µM, coculture fibroblast: H6019	0.849	0.849	0.713	0.788	0.754	0.736	0.702	0.673	0.64
10 µM, coculture fibroblast: H6076	0.9594	0.9406	0.8976	0.8911	0.864	0.84	0.811	0.799	0.803
10 µM, coculture fibroblast: H6231	0.739	0.953	0.916	0.906	0.946	0.917	0.903	0.9	0.905
10 µM, coculture fibroblast: HADF	0.9477	0.9367	0.923	0.931	0.912	0.835	0.861	0.857	0.821
10 µM, coculture fibroblast: HCFa	0.9837	0.9896	0.9544	0.9544	0.925	0.879	0.893	0.873	0.856
10 µM, coculture fibroblast: HCPF	0.9691	0.972	0.901	0.904	0.856	0.829	0.795	0.796	0.835
10 µM, coculture fibroblast: HHSteC	0.96	0.855	0.926	0.918	0.88	0.867	0.841	0.832	0.82
10 µM, coculture fibroblast: HMF	0.984	0.963	0.92	0.898	0.874	0.857	0.838	0.8203	0.8081
10 µM, coculture fibroblast: HPFa	0.901	0.9672	0.913	0.8917	0.86694	0.822	0.773	0.7584	0.7385
10 µM, coculture fibroblast: HUF	0.90818	0.8595	0.817	0.792	0.742	0.732	0.684	0.67397	0.672
10 µM, coculture fibroblast: Hs5	0.96	0.958	0.917	0.899	0.868	0.832	0.809	0.811	0.799
10 µM, coculture fibroblast: Hs27A	0.9287	0.909	0.8873	0.884	0.856	0.751	0.816	0.81	0.777
10 µM, coculture fibroblast: Hs343T	0.948	0.9476	0.8902	0.871	0.84	0.8131	0.7683	0.771	0.763
10 µM, coculture fibroblast: WS1	0.826	0.8514	0.714	0.8093	0.791	0.78	0.77	0.771	0.7616
100 µM, coculture fibroblast: C12385	0.871	0.913	0.778	0.906	0.881	0.881	0.881	0.8738	0.867
100 µM, coculture fibroblast: H6013	0.9849	0.97751	0.9592	0.97	0.938	0.904	0.925	0.918	0.892
100 µM, coculture fibroblast: H6019	0.877	0.88	0.793	0.838	0.83	0.824	0.804	0.795	0.774
100 µM, coculture fibroblast: H6076	0.779	0.857	0.826	0.751	0.893	0.784	0.84	0.928	0.9
100 µM, coculture fibroblast: H6231	0.834	0.782	0.743	0.853	0.84	0.9	0.911	0.889	0.797
100 µM, coculture fibroblast: HADF	0.973	0.967	0.942	0.939	0.908	0.835	0.852	0.86	0.836
100 µM, coculture fibroblast: HCFa	0.795	0.835	0.777	0.862	0.814	0.777	0.819	0.797	0.884
100 µM, coculture fibroblast: HCPF	0.837	0.765	0.8	0.823	0.952	0.945	0.892	0.9344	0.88
100 µM, coculture fibroblast: HHSteC	0.9698	0.973	0.944	0.946	0.942	0.839	0.882	0.877	0.887
100 µM, coculture fibroblast: HMF	0.763	0.99638	0.976	0.963	0.9615	0.9474	0.943	0.947	0.972
100 µM, coculture fibroblast: HPFa	0.844	0.722	0.909	0.906	0.924	0.943	0.97	0.959	0.931
100 µM, coculture fibroblast: HUF	0.963	0.927	0.921	0.904	0.871	0.876	0.843	0.827	0.824
100 µM, coculture fibroblast: Hs5	0.878	0.978	0.957	0.935	0.913	0.897	0.887	0.866	0.855
100 µM, coculture fibroblast: Hs27A	0.979	0.976	0.909	0.846	0.906	0.86	0.875	0.874	0.837
100 µM, coculture fibroblast: Hs343T	0.845	0.847	0.848	0.845	0.851	0.87	0.862	0.916	0.898
100 µM, coculture fibroblast: WS1	0.862	0.913	0.736	0.842	0.837	0.815	0.805	0.785	0.789
